Earlier results, collected in patent US20110319352A1, “Compounds That Bind Oxysterol Binding Proteins, and Methods of Use Thereof” (President and Fellows of Harvard College, priority 2008, published 2011).
Some of these results come from one statement about several compounds together. For at least one compound, name, drawing or mass did not settle the structure.

Test system: NCI-60
Conditions: read-out: mean GI50 in the NCI's 60-cell-line anticancer assay; cited from earlier work

In the case of `COc1cc(/C=C/c2cc(O)c(C/C=C(\C)CCC=C(C)C)c(O)c2)cc2c1O[C@]1(C)C[C@@H](O)[C@@H](O)C(C)(C)[C@H]1C2` [Schweinfurthin B, schweinfurthin B, reference compound], the GI50 is listed as less than 1000 nM.
For schweinfurthin D [reference compound], the GI50 is given as less than 1000 nM.
